Test results reported in PMC3068154.
These are yes or no findings as the source states them, for the method shown. Binding seen in cells or lysates may run through a third protein. Some results given as binding are weak or reduced against the parent protein; the word gives no strength.

Biological target: T1, Beclin1 (mouse (endogenous in heart)), O88597
T1 chain: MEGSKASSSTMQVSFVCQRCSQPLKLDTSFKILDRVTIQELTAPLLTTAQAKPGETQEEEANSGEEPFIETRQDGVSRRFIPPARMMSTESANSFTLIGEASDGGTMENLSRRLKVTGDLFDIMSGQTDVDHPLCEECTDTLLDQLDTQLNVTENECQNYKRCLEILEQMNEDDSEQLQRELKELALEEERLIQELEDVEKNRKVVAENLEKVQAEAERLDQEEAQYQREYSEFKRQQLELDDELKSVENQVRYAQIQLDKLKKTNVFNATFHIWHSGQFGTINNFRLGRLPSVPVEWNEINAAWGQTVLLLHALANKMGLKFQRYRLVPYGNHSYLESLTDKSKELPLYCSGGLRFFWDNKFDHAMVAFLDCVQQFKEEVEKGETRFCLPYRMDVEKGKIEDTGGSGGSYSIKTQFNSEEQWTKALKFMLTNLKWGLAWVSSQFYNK
Assay: co-IP; anti-Beclin1 immunoprecipitates (250 µg protein, antibody 2.5 µg/ml, protein G agarose beads, 2 h at 4°C, washed five times with lysis buffer), Bcl-2 detected by immunoblot; cardiac mitochondria from WT and p53(-/-) mice treated with saline or DOX (20 mg/kg, three days)
Conditions: remark: other sources report otherwise

binding: binds
B1: Bcl-2, P10417 1-236 (protein)
chain: MAQAGRTGYDNREIVMKYIHYKLSQRGYEWDAGDADAAPLGAAPTPGIFSFQPESNPMPAVHRDMAARTSPLRPLVATAGPALSPVPPVVHLTLRRAGDDFSRRYRRDFAEMSSQLHLTPFTARGRFATVVEELFRDGVNWGRIVAFFEFGGVMCVESVNREMSPLVDNIALWMTEYLNRHLHTWIQDNGGWDAFVELYGPSMRPLFDFSWLSLKTLLSLALVGACITLGAYLGHK
